Experimental data published in paper doi:10.1101/551317.

Chains of the proteins cited; added tags and fusions are not shown. Lines headed by an entry give the natural chain unless they say otherwise; changes in a name come on top.
UniProt B6EUB3: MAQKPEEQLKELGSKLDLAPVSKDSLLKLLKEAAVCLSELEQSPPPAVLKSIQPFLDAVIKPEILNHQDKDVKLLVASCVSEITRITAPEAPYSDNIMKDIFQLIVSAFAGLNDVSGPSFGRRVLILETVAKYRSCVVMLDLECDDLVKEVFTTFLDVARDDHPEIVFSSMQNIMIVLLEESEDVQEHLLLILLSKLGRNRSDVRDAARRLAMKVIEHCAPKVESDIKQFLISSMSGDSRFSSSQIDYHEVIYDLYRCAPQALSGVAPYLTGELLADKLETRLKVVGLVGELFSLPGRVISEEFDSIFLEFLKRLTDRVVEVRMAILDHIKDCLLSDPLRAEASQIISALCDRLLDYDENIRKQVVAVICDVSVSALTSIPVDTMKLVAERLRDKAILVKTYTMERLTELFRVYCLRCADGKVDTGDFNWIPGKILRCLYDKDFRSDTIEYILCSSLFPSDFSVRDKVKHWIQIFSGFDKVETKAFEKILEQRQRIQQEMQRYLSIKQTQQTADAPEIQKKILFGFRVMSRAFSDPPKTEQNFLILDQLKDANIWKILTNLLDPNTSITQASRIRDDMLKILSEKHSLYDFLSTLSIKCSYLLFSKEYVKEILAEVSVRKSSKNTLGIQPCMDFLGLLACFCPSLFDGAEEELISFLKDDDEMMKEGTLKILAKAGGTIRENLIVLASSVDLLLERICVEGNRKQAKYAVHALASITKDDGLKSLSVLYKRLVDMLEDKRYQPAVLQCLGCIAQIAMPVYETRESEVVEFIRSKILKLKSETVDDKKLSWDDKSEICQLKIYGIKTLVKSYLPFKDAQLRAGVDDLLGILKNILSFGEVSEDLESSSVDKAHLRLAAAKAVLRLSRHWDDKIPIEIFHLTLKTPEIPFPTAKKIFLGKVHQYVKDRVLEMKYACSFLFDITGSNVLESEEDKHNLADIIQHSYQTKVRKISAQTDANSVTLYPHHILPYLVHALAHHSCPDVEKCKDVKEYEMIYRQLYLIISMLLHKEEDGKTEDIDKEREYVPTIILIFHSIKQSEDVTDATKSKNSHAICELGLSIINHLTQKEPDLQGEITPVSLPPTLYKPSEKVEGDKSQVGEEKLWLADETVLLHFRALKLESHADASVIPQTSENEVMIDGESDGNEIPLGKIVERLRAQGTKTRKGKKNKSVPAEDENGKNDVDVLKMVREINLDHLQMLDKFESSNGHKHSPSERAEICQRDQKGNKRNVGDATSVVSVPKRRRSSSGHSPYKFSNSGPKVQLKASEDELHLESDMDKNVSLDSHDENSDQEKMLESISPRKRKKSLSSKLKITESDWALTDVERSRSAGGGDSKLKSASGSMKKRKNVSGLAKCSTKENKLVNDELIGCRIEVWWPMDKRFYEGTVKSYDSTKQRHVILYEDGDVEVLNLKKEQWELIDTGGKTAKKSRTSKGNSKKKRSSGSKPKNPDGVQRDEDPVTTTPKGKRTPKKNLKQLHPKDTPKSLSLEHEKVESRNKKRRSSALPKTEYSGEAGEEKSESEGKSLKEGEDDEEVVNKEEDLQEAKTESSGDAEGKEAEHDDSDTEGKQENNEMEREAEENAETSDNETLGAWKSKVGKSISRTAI

Columns and labels:
Assay in all cases: split reporter
[1] = target: PDS5A, BiFC fusion (Arabidopsis thaliana) (UniProt B6EUB3)
[2] = target: PDS5A, BiFC fusion (Arabidopsis thaliana) (UniProt B6EUB3); remark: listed apart in the source
[3] = target: N-terminus of PDS5A, BiFC fusion (Arabidopsis thaliana)
[4] = target: C-terminus of PDS5A, BiFC fusion (Arabidopsis thaliana)
[5] = target: PDS5A, BiFC fusion (Arabidopsis thaliana) (UniProt B6EUB3); remark: listed apart in the source

| Binder | binding [1] | binding [2] | binding [3] | binding [4] | binding [5] |
| --- | --- | --- | --- | --- | --- |
| WAPL1, BiFC fusion (protein, UniProt F4I7C7 1-930) MIIVKLTANRICCSLLQLRRSYEHFYIFVFLPEIPLFRFSHLKLFPKNLQIQRLVSAMMERTYGRRKPGIPRTLSDSLNDSVSQTEYLSSSSSPDIEPIDYSLLPFSSQESSSLWHSSSRSNFREDYPQNGGVVRRAKRVRNGAEAAAFTSTLLEAQEFGELMEHEDEVNFALDGLRKGHQLRIRRASLSSLLSICASQHQRRSLRAQGISQSIIDAILVLSLDDIPSNLAAATLFFALTADGQDEHFMESPKCIKFLIKLLKPVIVTSTEGKPRNIGFKLLSLLKDVDAARDPVKMDDPSSSDILSRVQELLVNCKEMRLNDSYITETTRPELSTKWVALLAMERACVSKISFDDTSGSVKKTGGNFKEKLRELGGLDAVLEVVMDCHAVMERWVEYDALSVQEKKDNLHKQSLMLLLKCLKIMENATFLSTDNQNHLLGFKKCLGSHDSRMSFTELTISVIKMLSGLHLRGGFSSPNTNNVNSHYSNGGNHDSVLEANRKVTNEVVTISSDTYSTVGSISTRNGSVSQRSQSIIHLDFSPTSMSGSQSSVSGNEPTTSKTRVGSTISGSFAGRLASLGSDIARTTLRTTQAGEPICKKFGEFAPPEESEDPFAFDLEDYKPSKWAVVSVNQKKSRAQKKKGCYKQSKDESLYQLFSSQEESSNHRLNSQEESSNRDCSTSLQPSHCTNDIDEECLCLLFDCLLTAVKVLMNLTNDNVVGCRQVGGCRGLESMAELIARHFPSFTRSQLFSEMEKTGSSHQKKDKYLTDQELDFLVAILGLLVNLVERDGVNRSRLASASVPITKPEELQESEQEMIPLLCSIFLTNQGSAETKEETTTFTLDDEEAVLEGEKEAEKMIVEAYSALLLAFLSTESRSIRNSIKDYLPKRNLAILVPVLERFVAFHMTLNMIPPETHKAVMGVIESCKSP | binds | binds | binds | no binding |  |
| SWI1, BiFC fusion (protein, UniProt Q9FGN8 1-639) MSSTMFVKRNPIRETTAGKISSPSSPTLNVAVAHIRAGSYYEIDASILPQRSPENLKSIRVVMVSKITASDVSLRYPSMFSLRSHFDYSRMNRNKPMKKRSGGGLLPVFDESHVMASELAGDLLYRRIAPHELSMNRNSWGFWVSSSSRRNKFPRREVVSQPAYNTRLCRAASPEGKCSSELKSGGMIKWGRRLRVQYQSRHIDTRKNKEGEESSRVKDEVYKEEEMEKEEDDDDGNEIGGTKQEAKEITNGNRKRKLIESSTERLAQKAKVYDQKKETQIVVYKRKSERKFIDRWSVERYKLAERNMLKVMKEKNAVFGNSILRPELRSEARKLIGDTGLLDHLLKHMAGKVAPGGQDRFMRKHNADGAMEYWLESSDLIHIRKEAGVKDPYWTPPPGWKLGDNPSQDPVCAGEIRDIREELASLKRELKKLASKKEEEELVIMTTPNSCVTSQNDNLMTPAKEIYADLLKKKYKIEDQLVIIGETLRKMEEDMGWLKKTVDENYPKKPDSTETPLLLEDSPPIQTLEGEVKVVNKGNQITESPQNREKGRKHDQQERSPLSLISNTGFRICRPVGMFAWPQLPALAAATDTNASSPSHRQAYPSPFPVKPLAAKRPLGLTFPFTIIPEEAPKNLFNV | binds | binds |  |  | binds |

Where two headings read alike, the source gives them in different places. These are yes or no findings as the source states them, for the method shown. Binding seen in cells or lysates may run through a third protein. For some of these results: A result given as binding can be weak or reduced; the word gives no strength. Sequences can lack the tags named with a protein.
